Literature values, collected in US10052333B2, “Methods and systems for the delivery of a therapeutic agent” (HANANJA EHF, priority 2007, dated 2018).

Settings: nasal gel, carbopol in PEG 400, rats; cited from earlier work

Q: For `COC(=O)C1=C(C)NC(C)=C(C(=O)OC)C1c1ccccc1[N+](=O)[O-]` [nifedipine], which “Bioavailability, nasal versus peroral” value is on record?
A: higher bioavailability of nifedipine than after peroral administration
